# Reference: PubChem BioAssay AID445 (National Center for Advancing Translational Sciences (NCATS), 2006)
# The list shows a part of the results. Further columns of the screen follow, without active or inactive calls. Most of these compounds were active or inconclusive in the main read-out, so they are no random draw. Potencies come from curve fits of mixed quality, noted in brackets.
# Test: IkB Signaling
# Settings: ABC-DLBCL IkBa-CBG/CBR dual luciferase ratio (green luciferase fused to IkBa over red control in OCI-Ly3 lymphoma cells), 4 h
# Summary of the method: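 In this assay, an IκBα–CBG68 fusion accumulates when IKK-driven degradation is blocked; native CBR normalizes for cell number. OCI-Ly3 cells were treated 4 h with compound and doxycycline, then green and red light read after Chroma-Glo addition.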
# [1] = measured here: control luc red channel unless noted
compound,measurement,setting,value
Cc1nn(CCCC(=O)NCc2ccccc2Br)c(=O)c2c1sc1ccccc12,AC50,[1],"12.6 µM [falling, partial curve]"
CC(C)C(c1nnnn1Cc1ccccc1)N(Cc1ccco1)Cc1cccs1 (stereo unspecified),AC50,[1],"10 µM [falling, partial curve]"
O=C(NCc1ccccc1F)C1CCCN(C(=O)N2CCOc3ccccc32)C1 (stereo unspecified),AC50,[1],"15.8 µM [falling, single point]"
COc1ccc(-c2nc3ccccc3o2)cc1NC(=O)COc1ccc(C)c(C)c1,AC50,[1],"3.16 µM [rising, partial curve]"
O=C(CSc1nnc(CN2CCOCC2)n1-c1ccc(Cl)cc1)Nc1cc(Cl)ccc1O,AC50,[1],"39.8 µM [falling, single point]"
CCOc1ccc(C(=O)Nc2cccc(C(=O)OCc3cc(=O)n4cc(C)sc4n3)c2)cc1,AC50,[1],"0.126 µM [falling, full curve]"
COc1ccc(S(=O)(=O)N(CC(=O)N2CCc3ccccc3C2)c2ccc(C)cc2)cc1,AC50,[1],"7.94 µM [falling, partial curve]"
COc1ccc(Br)cc1CNC(=O)c1cc(=O)[nH]c2ccc(S(=O)(=O)N3CCCCC3C)cc12 (stereo unspecified),AC50,[1],"31.6 µM [falling, single point]"
CCn1cc(C(=O)NCCc2ccccc2)c(=O)c2cc(S(=O)(=O)N3CCCCCC3)ccc21,AC50,[1],"6.31 µM [falling, partial curve]"
Cc1nn(C(C)C(=O)N2CCN(c3ccc(F)cc3)CC2)c(=O)c2c1sc1ccccc12 (stereo unspecified),AC50,[1],"31.6 µM [falling, single point]"
Nc1c(C(=O)NCCc2ccccc2)nnn1CC(=O)Nc1ccc(Cl)cc1,AC50,[1],"0.02 µM [falling, full curve, poor fit]"
C=Cc1ccc(Cn2c(C(=O)O)c(CNCCc3ccccc3)c3ccc(C)cc32)cc1,AC50,[1],"39.8 µM [falling, single point]"
O=C(CSc1nc2c([nH]c3ccccc32)c(=O)n1-c1ccccc1)c1ccc(Cl)cc1,AC50,[1],"39.8 µM [rising, single point]"
CCCn1c(CCC(=O)Nc2cccc(C)c2C)nc2cccnc21,AC50,[1],"12.6 µM [falling, partial curve]"
CC(C)NS(=O)(=O)c1ccc(OCC(=O)Nc2ccc3c(c2)OCO3)c(Cl)c1,AC50,[1],"15.8 µM [falling, partial curve]"
Cc1ccccc1OCCCCn1c(C2CC(=O)N(c3ccccc3Cl)C2)nc2ccccc21 (stereo unspecified),AC50,[1],"15.8 µM [falling, partial curve]"
CCOC(=O)C1CCCN(c2c(C(=O)c3ccc(C)cc3)cnc3ccc(OCC)cc23)C1 (stereo unspecified),AC50,[1],"31.6 µM [falling, partial curve]"
O=C(Nc1nc(-c2cccs2)cs1)c1ccc(Cl)s1,AC50,measured here: IkB-luc green channel,"25.1 µM [falling, partial curve]"
same,AC50,measured here: control luc red channel,"7.94 µM [falling, full curve]"
Cc1ccc2nc(NC(=O)c3ccc(S(=O)(=O)N4CCCc5ccccc54)cc3)sc2c1,AC50,[1],"7.94 µM [falling, full curve, poor fit]"
O=C(C1CCCCC1)N(Cc1cccnc1)c1nc2c(F)cc(F)cc2s1,AC50,[1],"7.94 µM [falling, partial curve]"
COc1ccc(OC)c(NC(=O)c2c(NCc3ccc(OC)c(OC)c3)sc3c2CCC(C)C3)c1 (stereo unspecified),AC50,[1],"39.8 µM [falling, partial curve]"
Nc1c(C(=O)Nc2cccc(F)c2)sc2nc(-c3cccs3)ccc12,AC50,[1],"7.94 µM [falling, partial curve]"
COc1ccccc1-c1cc(C(=O)Nc2c(C)n(C)n(-c3ccccc3)c2=O)no1,AC50,[1],"0.794 µM [falling, full curve]"
Cn1c(/C=N/c2nc3ccccc3[nH]2)nc2ccccc21,AC50,[1],"15.8 µM [falling, partial curve]"
O=C(CCCSc1nc2ccccc2s1)NC1=NCCS1,AC50,[1],"5.01 µM [falling, partial curve]"
Cc1cc(C)nc(NS(=O)(=O)c2ccc(NC(=O)c3cc(=O)c4ccc(C)c(C)c4o3)cc2)n1,AC50,[1],"39.8 µM [falling, single point]"
Cc1ccccc1-c1nc2scc(CCNC(=O)C(=O)Nc3ccc(F)cc3F)n2n1,AC50,[1],"15.8 µM [falling, partial curve]"
Cc1oc2ccc(O)c(CN3CCCCC3C)c2c1C(=O)Nc1ccccc1 (stereo unspecified),AC50,[1],"39.8 µM [falling, single point]"
O=C(CC(c1cccs1)N1Cc2ccccc2C1=O)Nc1ccc(F)cc1F (stereo unspecified),AC50,[1],"20 µM [falling, single point]"
Cc1cccc(CC(=O)NC2CC(=O)N(c3ccccc3)C2)c1 (stereo unspecified),AC50,[1],"3.16 µM [falling, single point]"
Cc1ccc(O)c(NC(=O)c2cc(-c3ccc(F)cc3)on2)c1,AC50,[1],"0.01 µM [falling, full curve]"
Cc1ccccc1CSCCNC(=O)C1CCN(S(=O)(=O)Cc2ccccc2)CC1,AC50,[1],"15.8 µM [falling, partial curve]"
COc1ccc(NC(=O)CCc2nc3cccnc3n2-c2ccccc2)cc1Cl,AC50,[1],"39.8 µM [falling, single point]"
Cc1cc(-c2ccc(S(=O)(=O)Nc3cc(Cl)ccc3C)s2)on1,AC50,[1],"2.51 µM [rising, full curve]"
COc1ccc(CCNC(=O)c2cc3c(-c4ccc(OC)c(OC)c4)nn(C)c3s2)cc1OC,AC50,[1],"10 µM [falling, partial curve]"
Cc1ccc(Cn2c(CO)cnc2SCc2cccc(F)c2)cc1,AC50,[1],"39.8 µM [falling, partial curve, poor fit]"
Cc1ccc(Cl)cc1N1CCN(C(=O)c2ccc(CS(=O)(=O)c3ccc(Br)cc3)o2)CC1,AC50,[1],"10 µM [falling, partial curve]"
Cc1c(C)n(Cc2ccccc2)c2ncnc(N)c12,AC50,[1],"12.6 µM [falling, partial curve]"
Cc1ccc(N(CC(=O)Nc2ccc(F)cc2F)S(=O)(=O)c2cccs2)cc1,AC50,[1],"10 µM [falling, partial curve]"
CCC(=O)C1=C(c2ccccc2)N(C(=O)CC)n2c(nnc2-c2ccccc2)S1,AC50,[1],"12.6 µM [falling, partial curve]"

# Part of the list above, with bars between the fields.
compound | measurement | setting | value
Cc1ccccc1OCCCCn1c(C2CC(=O)N(c3ccccc3Cl)C2)nc2ccccc21 (stereo unspecified) | AC50 | [1] | 15.8 µM [falling, partial curve]
Cc1ccc2nc(NC(=O)c3ccc(S(=O)(=O)N4CCCc5ccccc54)cc3)sc2c1 | AC50 | [1] | 7.94 µM [falling, full curve, poor fit]
